Reference: PubChem BioAssay AID1259254 (NCATS, 2017)

- Assay: 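Genome-wide screen for genes that prevent DNA re-replication in cancer cells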 (primary screen)
- Cell system: human HCT116 colorectal cancer cells
- Reagents: single siRNA against human genes
- Time to read-out: 3 days
- Detection: 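Nuclei stained with Hoechst and imaged; cell-cycle phase assigned by DNA content; G2 share scaled per plate, non-targeting siRNA 0%, GMNN siRNA 100%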
- Reading the numbers: G2 robust z-score: higher = more G2 cells, more excess DNA replication
- Hit rule: 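Active siRNAs have a G2 robust z of 5 or more median absolute deviations over the median, which in these data means about 38% or higher of GMNN control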
Shown is a random part of about 59,000 reagents tested. About 1,550 of them (2.6%) were called active. 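G2 share is only a proxy for re-replication; each gene was hit by three separate siRNAs, and active genes were retested.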 Entries without a mark were called inactive. Not all columns of the deposit are shown. The record does not give: the amount of reagent.

gene knocked down | PubChem SID | G2 robust z-score
FDCSP (follicular dendritic cell secreted protein) | SID160762654 | -0.159
FDCSP (follicular dendritic cell secreted protein) | SID160762655 | -1.07
FDCSP (follicular dendritic cell secreted protein) | SID160762656 | -0.338
AGTR2 (angiotensin II receptor type 2) | SID160715700 | 0.485
AGTR2 (angiotensin II receptor type 2) | SID160715711 | -0.155
AGTR2 (angiotensin II receptor type 2) | SID160715721 | -0.0343
DNAAF11 (dynein axonemal assembly factor 11) | SID160736735 | -0.526
DNAAF11 (dynein axonemal assembly factor 11) | SID160736736 | -0.741
DNAAF11 (dynein axonemal assembly factor 11) | SID160736737 | 1.09
TRDN (triadin) | SID160728220 | -0.691
TRDN (triadin) | SID160728221 | -0.113
TRDN (triadin) | SID160728222 | 4.23
TPM4 (tropomyosin 4) | SID160718285 | -0.865
TPM4 (tropomyosin 4) | SID160718286 | 1.65
TPM4 (tropomyosin 4) | SID160718287 | -0.226
HNRNPR (heterogeneous nuclear ribonucleoprotein R) | SID160727457 | -0.327
HNRNPR (heterogeneous nuclear ribonucleoprotein R) | SID160727459 | 0.549
HNRNPR (heterogeneous nuclear ribonucleoprotein R) | SID160727465 | -0.452
LIM2 (lens intrinsic membrane protein 2) | SID160733293 | -0.524
LIM2 (lens intrinsic membrane protein 2) | SID160776619 | -0.818
LIM2 (lens intrinsic membrane protein 2) | SID160776620 | -0.548
COPZ1 (coat protein complex I subunit zeta 1) | SID160731424 | 0.465
COPZ1 (coat protein complex I subunit zeta 1) | SID160731432 | 2.19
COPZ1 (coat protein complex I subunit zeta 1) | SID160731442 | 1.3
EIF2D (eukaryotic translation initiation factor 2D) | SID160758449 | 1.39
EIF2D (eukaryotic translation initiation factor 2D) | SID160758460 | -1.2
EIF2D (eukaryotic translation initiation factor 2D) | SID160758471 | -0.138
TAS2R8 (taste 2 receptor member 8) | SID160739742 | -0.644
TAS2R8 (taste 2 receptor member 8) | SID160739743 | -0.713
TAS2R8 (taste 2 receptor member 8) | SID160739744 | 1.51

Entries above whose target name starts with L or l:
gene knocked down | PubChem SID | G2 robust z-score
LIM2 (lens intrinsic membrane protein 2) | SID160733293 | -0.524
LIM2 (lens intrinsic membrane protein 2) | SID160776619 | -0.818
LIM2 (lens intrinsic membrane protein 2) | SID160776620 | -0.548
